Experimental data: publication PMC4865633
No constants are given. Whether binding was seen depends on the method and setting. Binding can be weak; no strength is given.

Protein sequences, listed by entry. Tags and fused reporters are not part of them. Lines headed by an entry give the natural chain unless they say otherwise; changes in a name come on top.
UniProt A9QM74: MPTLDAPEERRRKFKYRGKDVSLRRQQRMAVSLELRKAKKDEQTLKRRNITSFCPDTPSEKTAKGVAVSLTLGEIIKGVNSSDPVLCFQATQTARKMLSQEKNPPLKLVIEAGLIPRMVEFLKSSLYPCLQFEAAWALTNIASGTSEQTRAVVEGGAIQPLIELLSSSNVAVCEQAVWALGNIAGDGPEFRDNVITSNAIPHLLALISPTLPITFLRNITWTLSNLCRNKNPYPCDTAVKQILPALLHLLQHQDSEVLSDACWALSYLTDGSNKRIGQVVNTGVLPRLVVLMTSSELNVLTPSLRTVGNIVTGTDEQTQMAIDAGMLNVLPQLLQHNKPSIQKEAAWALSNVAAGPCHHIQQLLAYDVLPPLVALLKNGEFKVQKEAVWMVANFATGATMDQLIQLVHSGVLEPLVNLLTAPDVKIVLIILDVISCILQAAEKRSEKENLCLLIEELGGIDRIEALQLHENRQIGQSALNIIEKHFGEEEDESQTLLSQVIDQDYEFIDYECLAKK
UniProt O15131: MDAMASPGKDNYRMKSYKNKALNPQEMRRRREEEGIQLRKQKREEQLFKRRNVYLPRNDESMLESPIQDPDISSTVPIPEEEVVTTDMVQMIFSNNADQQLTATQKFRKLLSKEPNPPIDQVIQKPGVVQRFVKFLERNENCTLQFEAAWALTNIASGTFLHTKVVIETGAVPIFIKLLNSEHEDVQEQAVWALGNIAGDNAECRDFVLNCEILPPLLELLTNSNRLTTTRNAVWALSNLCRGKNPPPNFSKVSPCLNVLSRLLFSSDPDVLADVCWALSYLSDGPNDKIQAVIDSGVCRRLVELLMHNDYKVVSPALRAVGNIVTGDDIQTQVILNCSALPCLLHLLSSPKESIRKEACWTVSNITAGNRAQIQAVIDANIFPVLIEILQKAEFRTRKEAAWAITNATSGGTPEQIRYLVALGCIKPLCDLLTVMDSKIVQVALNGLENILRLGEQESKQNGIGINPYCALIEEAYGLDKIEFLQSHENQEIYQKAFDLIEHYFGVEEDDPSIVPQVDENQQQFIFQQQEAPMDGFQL

Target: GST-h-importin α8 (KPNA7) (human) (UniProt A9QM74)
Assay: pull-down; GST fusions immobilized on GSH beads, 100 pmol FLAG-importin α in 200 μL transport buffer (20 mM HEPES pH 7.3, 110 mM potassium acetate, 2 mM magnesium acetate, 1 mM EGTA, 1 mM DTT) with 0.1% Triton X-100, 4 °C, 1 h; western blot with anti-FLAG and anti-GST (Fig. 1A); both purified

FLAG-h-importin α7 (KPNA6) (from UniProt O60684)
binding: binds

FLAG-h-importin α6 (KPNA5) (from UniProt O15131)
binding: binds
